Data: article PMC5651841, “The Staphylococcus aureus extracellular matrix protein (Emp) has a fibrous structure and binds to different extracellular matrices” (Scientific Reports, 2017)
No constants are given. Whether binding was seen depends on the method and setting. Some entries that bind do so weakly or less than the wild type.

Chains of the proteins cited; added tags and fusions are not shown. Lines headed by an entry give the natural chain unless they say otherwise; changes in a name come on top.
UniProt P02452: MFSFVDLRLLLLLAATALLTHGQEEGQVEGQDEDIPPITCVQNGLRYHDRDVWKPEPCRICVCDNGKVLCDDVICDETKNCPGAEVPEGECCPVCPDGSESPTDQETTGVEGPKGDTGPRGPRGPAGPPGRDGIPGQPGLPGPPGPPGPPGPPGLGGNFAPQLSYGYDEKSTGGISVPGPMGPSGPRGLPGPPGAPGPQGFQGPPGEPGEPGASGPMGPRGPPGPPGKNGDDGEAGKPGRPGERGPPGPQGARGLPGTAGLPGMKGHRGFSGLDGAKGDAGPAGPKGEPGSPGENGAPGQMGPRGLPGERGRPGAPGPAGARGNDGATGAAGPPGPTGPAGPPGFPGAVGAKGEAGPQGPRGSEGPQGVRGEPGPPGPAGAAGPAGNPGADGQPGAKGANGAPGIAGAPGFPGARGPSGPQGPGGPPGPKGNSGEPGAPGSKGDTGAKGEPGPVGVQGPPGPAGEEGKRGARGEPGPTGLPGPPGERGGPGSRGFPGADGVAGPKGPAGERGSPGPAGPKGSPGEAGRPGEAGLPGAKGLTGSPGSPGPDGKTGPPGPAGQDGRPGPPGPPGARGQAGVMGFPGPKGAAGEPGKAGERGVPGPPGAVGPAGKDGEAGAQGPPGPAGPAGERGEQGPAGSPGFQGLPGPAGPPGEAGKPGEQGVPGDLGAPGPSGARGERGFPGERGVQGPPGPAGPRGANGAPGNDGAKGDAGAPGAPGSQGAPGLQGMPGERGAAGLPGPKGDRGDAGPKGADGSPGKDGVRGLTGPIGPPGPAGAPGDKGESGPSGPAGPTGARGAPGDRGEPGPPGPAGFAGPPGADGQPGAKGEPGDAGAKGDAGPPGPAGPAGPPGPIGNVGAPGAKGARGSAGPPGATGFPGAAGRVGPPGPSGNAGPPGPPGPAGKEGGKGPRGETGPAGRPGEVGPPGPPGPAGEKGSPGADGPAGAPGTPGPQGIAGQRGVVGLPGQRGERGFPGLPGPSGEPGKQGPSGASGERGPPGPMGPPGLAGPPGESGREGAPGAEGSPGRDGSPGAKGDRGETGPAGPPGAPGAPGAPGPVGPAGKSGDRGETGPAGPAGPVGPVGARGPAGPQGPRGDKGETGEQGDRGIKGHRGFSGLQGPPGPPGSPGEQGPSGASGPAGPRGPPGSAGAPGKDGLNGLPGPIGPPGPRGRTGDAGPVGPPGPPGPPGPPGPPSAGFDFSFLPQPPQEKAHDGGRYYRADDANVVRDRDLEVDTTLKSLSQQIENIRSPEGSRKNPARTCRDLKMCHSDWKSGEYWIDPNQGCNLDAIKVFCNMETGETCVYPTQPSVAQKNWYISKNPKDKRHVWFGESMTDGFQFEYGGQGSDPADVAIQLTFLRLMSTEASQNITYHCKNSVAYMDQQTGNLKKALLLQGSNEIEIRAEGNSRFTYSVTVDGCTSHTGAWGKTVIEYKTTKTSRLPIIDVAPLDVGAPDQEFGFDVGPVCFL

Assays:
collagen I = collagen I (UniProt P02452); assay: ELISA; matrix component (0.25 ug/well in 0.1 M Na2CO3, overnight 4 C) immobilised on polystyrene plates; Emp forms 0-1.5 uM added for 1 h at RT, PBST washes; detected with polyclonal anti-Emp IgG and AP-conjugated anti-rabbit IgG; KD from steady-state curves, one-site binding model; both purified
[1] = target: full-length Emp protein (extracellular matrix protein Emp of Staphylococcus aureus, without the signal peptide) (S. aureus) (UniProt Q2G012); assay: dynamic light scattering (photon correlation spectroscopy); 12.94 uM EmpFL in 50 mM sodium phosphate, pH7, 250 mM NaF, 25 C, Zetasizer Nano ZS; both purified
[2] = target: full-length Emp protein (extracellular matrix protein Emp of Staphylococcus aureus, without the signal peptide) (S. aureus) (UniProt Q2G012); assay: transmission electron microscopy (negative stain); purified EmpFL (3.1 nmol) or Emp2+3 (2.4 nmol) in 20 ul adsorbed on carbon-coated grids, 2% uranyl acetate; both purified

Molecule	binding (collagen I)	binding [1]	binding [2]
Emp1 (N-terminal fragment of Emp) (from UniProt Q2G012 26-116) (domain or fragment)	no binding (tested: up to 1.5 uM)	–	–
full-length Emp protein (extracellular matrix protein Emp of Staphylococcus aureus, without the signal peptide) (natural protein, gene of 1,023 nucleotides; numbers count on: the protein without signal peptide and without His-tag; The vector (printed pQ30-UA, Qiagen) probably adds an N-terminal His6 (surmised); Primer EmpFor1UA starts at nt +76 (codon 26), which would give 315 residues against the printed 314; also called EmpFL; source: E. coli (TG1 transformants, plasmid pQemp), purified (Ni-NTA in 8 M urea, solubilized by …)) SVTESVDKKFVVPESGINKIIPAYDEFKNSPKVNVSNLTDNKNFVASEDKLNKIADSSAASKIVDKNFVVPESKLGNIVPEYKEINNRVNVATNNPASQQVDKHFVAKGPEVNRFITQNKVNHHFITTQTHYKKVITSYKSTHVHKHVNHAKDSINKHFIVKPSESPRYTHPSQSLIIKHHFAVPGYHAHKFVTPGHASIKINHFCVVPQINSFKVIPPYGHNSHRMHVPSFQNNTTATHQNAKVNKAYDYKYFYSYKVVKGVKKYFSFSQSNGYKIGKPSLNIKNVNYQYAVPSYSPTHYVPEFKGSLPAPRV	–	binds	binds
